Measurements: PMC11349236
Results are given in words; binding and its absence hold for the method and conditions named. In cells and extracts the contact can be indirect. Here binding means that the protein was enriched with, or labelled near, the bait; the list need not be complete.

Protein sequences, listed by entry. Tags and fused reporters are not part of them. Lines headed by an entry give the natural chain unless they say otherwise; changes in a name come on top.
UniProt Q38D74: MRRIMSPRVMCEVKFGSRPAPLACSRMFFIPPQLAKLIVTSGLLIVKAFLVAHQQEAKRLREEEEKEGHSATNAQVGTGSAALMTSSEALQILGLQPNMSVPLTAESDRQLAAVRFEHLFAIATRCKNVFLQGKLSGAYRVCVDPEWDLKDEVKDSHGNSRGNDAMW
UniProt Q57YN2: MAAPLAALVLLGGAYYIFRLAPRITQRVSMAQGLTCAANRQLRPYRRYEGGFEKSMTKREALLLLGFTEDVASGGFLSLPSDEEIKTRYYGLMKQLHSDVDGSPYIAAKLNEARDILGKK
UniProt Q57W16: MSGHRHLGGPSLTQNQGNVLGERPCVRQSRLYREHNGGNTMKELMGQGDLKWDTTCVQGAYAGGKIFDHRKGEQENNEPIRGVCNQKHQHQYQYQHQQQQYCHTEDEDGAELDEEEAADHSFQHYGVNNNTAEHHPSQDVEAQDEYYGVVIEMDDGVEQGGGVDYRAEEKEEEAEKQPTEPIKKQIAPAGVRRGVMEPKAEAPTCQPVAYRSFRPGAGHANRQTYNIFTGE
UniProt Q57UL9: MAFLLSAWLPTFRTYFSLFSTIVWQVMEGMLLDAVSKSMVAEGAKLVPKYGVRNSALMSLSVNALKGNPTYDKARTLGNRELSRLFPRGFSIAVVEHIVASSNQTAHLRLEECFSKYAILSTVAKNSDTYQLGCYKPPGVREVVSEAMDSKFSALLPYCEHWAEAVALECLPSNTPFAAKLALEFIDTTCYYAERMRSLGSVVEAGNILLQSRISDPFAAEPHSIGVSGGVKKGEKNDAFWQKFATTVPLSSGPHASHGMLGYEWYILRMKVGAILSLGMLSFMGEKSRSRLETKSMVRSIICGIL

Experiments:
[1] = molecular target: TbPam16-HA (RNAi-resistant, full-length TbPam16 with C-terminal triple HA tag) (T. brucei) (UniProt Q38D74); assay: affinity purification with mass spectrometry; postmix SILAC CoIP: CoIPs of uninduced and 2 days induced TbPam16-HA exclusive expressor cells done separately and eluates mixed afterwards; 1% digitonin, 20 mM Tris-HCl pH 7.4, 100 mM NaCl; anti-HA affinity matrix, 2 h, 4°C; LC-MS; detects stable and more transient interaction partners
[2] = molecular target: TbPam16-HA (RNAi-resistant, full-length TbPam16 with C-terminal triple HA tag) (T. brucei) (UniProt Q38D74); assay: affinity purification with mass spectrometry; premix SILAC CoIP: differentially labelled uninduced and 2 days induced TbPam16-HA exclusive expressor cells mixed before the CoIP; mitochondria-enriched pellets solubilised in 1% digitonin, 20 mM Tris-HCl pH 7.4, 100 mM NaCl; anti-HA affinity matrix, 2 h, 4°C; LC-MS; preferentially detects stable interaction partners

Substance: TbPam18 (from UniProt Q57YN2)
- binding [1]: binds
- binding [2]: binds

Substance: Tb927.8.4190 (from UniProt Q57W16)
- binding [1]: binds

Substance: TbCOQ9 (from UniProt Q57UL9)
- binding [2]: binds
